Reference: PubChem BioAssay AID1259308 (NCATS, 2017)
The whole screen tested about 59,000 reagents; below is a random part of them. About 1,510 of them (2.6%) count as active. 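Calls use total luciferase alone and ignore viability, so some active siRNAs may act by altering cell number.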 Entries without a mark were called inactive. Further read-outs or replicates are left out here. Reagent sequences are not shown.

Screen: 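Knock-downs that increase output of a recombinant reporter protein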 (primary screen)
Cell system: human HEK293 embryonic kidney cells stably expressing firefly luciferase (HEK-CMV-Luc2-Hygro)
Knock-down reagent: single siRNA against human genes, 0.8 pmol siRNA per well
Timing: 72 h
Measurement: 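Reporter luminescence and viable-cell signal on separate replicate plates, given as percent of non-targeting control and median/MAD z-scores, plus per-cell luciferase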
Scale: total luciferase, z-score and total luciferase, % of control: higher = more reporter protein produced
Rule for the call: 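Active when the median/MAD z-score for overall luciferase is greater than 3; a gene was taken forward for validation with new siRNAs if at least two of its three siRNAs passed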
Calls: active = raised luciferase; inactive = no rise

For CENPB (GeneID 1059) [SID160741804], how do the results read?
total luciferase, z-score: -1.03; total luciferase, % of control: 61.5

For CENPB (GeneID 1059) [SID160741816], what was measured?
total luciferase, z-score: 0.213; total luciferase, % of control: 86.1

What is on record for CENPB (GeneID 1059) [SID160741827]?
total luciferase, z-score: 0.494; total luciferase, % of control: 91.7

With PSMD3 (GeneID 5709) [SID160715236], how do the results read?
total luciferase, z-score: 2.11; total luciferase, % of control: 124

With PSMD3 (GeneID 5709) [SID160715237], what does the deposit list?
total luciferase, z-score: 1.06; total luciferase, % of control: 103

For PSMD3 (GeneID 5709) [SID160715238], what does the deposit list?
total luciferase, z-score: 2.26; total luciferase, % of control: 127

With EIF2A (GeneID 83939) [SID160751558], what does the deposit list?
total luciferase, z-score: 0.321; total luciferase, % of control: 88.3

For EIF2A (GeneID 83939) [SID160751559], what was measured?
total luciferase, z-score: 1.42; total luciferase, % of control: 110

With EIF2A (GeneID 83939) [SID160751560], what was measured?
total luciferase, z-score: 1.54; total luciferase, % of control: 113

For DARS2 (GeneID 55157) [SID160743085], how do the results read?
total luciferase, z-score: -0.678; total luciferase, % of control: 68.4

For DARS2 (GeneID 55157) [SID160743086], what does the deposit list?
total luciferase, z-score: -1.64; total luciferase, % of control: 49.2

What did the screen give for DARS2 (GeneID 55157) [SID160743087]?
total luciferase, z-score: -0.668; total luciferase, % of control: 68.6

How did the screen score NEFM (GeneID 4741) [SID160777945]?
total luciferase, z-score: -0.0954; total luciferase, % of control: 80

What is on record for NEFM (GeneID 4741) [SID160777946]?
total luciferase, z-score: 1.29; total luciferase, % of control: 107

Which result is listed for NEFM (GeneID 4741) [SID160777947]?
total luciferase, z-score: -1.66; total luciferase, % of control: 48.8

What is on record for PEX3 (GeneID 8504) [SID160720182]?
total luciferase, z-score: -0.0195; total luciferase, % of control: 81.5

What is on record for PEX3 (GeneID 8504) [SID160720183]?
total luciferase, z-score: 0.564; total luciferase, % of control: 93.1

How did the screen score PEX3 (GeneID 8504) [SID160720184]?
total luciferase, z-score: 0.632; total luciferase, % of control: 94.5

What did the screen give for EVA1A (GeneID 84141) [SID160751782]?
total luciferase, z-score: 0.29; total luciferase, % of control: 87.6

Which result is listed for EVA1A (GeneID 84141) [SID160751783]?
total luciferase, z-score: 0.684; total luciferase, % of control: 95.5

How did the screen score EVA1A (GeneID 84141) [SID160751784]?
total luciferase, z-score: -0.562; total luciferase, % of control: 70.7

Which result is listed for PLEKHA8P1 (GeneID 51054) [SID160733481]?
total luciferase, z-score: -0.308; total luciferase, % of control: 75.8

What is on record for PLEKHA8P1 (GeneID 51054) [SID160739927]?
total luciferase, z-score: -0.129; total luciferase, % of control: 79.3

For PLEKHA8P1 (GeneID 51054) [SID160739928], what does the deposit list?
total luciferase, z-score: 1.05; total luciferase, % of control: 103

What is on record for ENY2 (GeneID 56943) [SID160733651]?
total luciferase, z-score: 0.267; total luciferase, % of control: 87.2

What did the screen give for ENY2 (GeneID 56943) [SID160745354]?
total luciferase, z-score: 1.11; total luciferase, % of control: 104

Which result is listed for ENY2 (GeneID 56943) [SID160745355]?
total luciferase, z-score: 4.38 (active); total luciferase, % of control: 169

With RAMP2 (GeneID 10266) [SID160727964], what does the deposit list?
total luciferase, z-score: -0.47; total luciferase, % of control: 72.5

How did the screen score RAMP2 (GeneID 10266) [SID160730420]?
total luciferase, z-score: 0.166; total luciferase, % of control: 85.2

How did the screen score RAMP2 (GeneID 10266) [SID160730423]?
total luciferase, z-score: -0.848; total luciferase, % of control: 65

With OPLAH (GeneID 26873) [SID160738184], what does the deposit list?
total luciferase, z-score: -0.634; total luciferase, % of control: 69.3

What did the screen give for OPLAH (GeneID 26873) [SID160738185]?
total luciferase, z-score: 0.504; total luciferase, % of control: 91.9

Which result is listed for OPLAH (GeneID 26873) [SID160738186]?
total luciferase, z-score: 0.291; total luciferase, % of control: 87.7

What did the screen give for GSTK1 (GeneID 373156) [SID160765233]?
total luciferase, z-score: 0.457; total luciferase, % of control: 91

Which result is listed for GSTK1 (GeneID 373156) [SID160765234]?
total luciferase, z-score: -0.2; total luciferase, % of control: 77.9

With GSTK1 (GeneID 373156) [SID160765235], how do the results read?
total luciferase, z-score: -0.132; total luciferase, % of control: 79.3

With LOC730338 (GeneID 730338) [SID160773734], what was measured?
total luciferase, z-score: 0.2; total luciferase, % of control: 85.9

With LOC730338 (GeneID 730338) [SID160773735], what was measured?
total luciferase, z-score: -0.386; total luciferase, % of control: 74.2

What is on record for LOC730338 (GeneID 730338) [SID160773738]?
total luciferase, z-score: -1.81; total luciferase, % of control: 45.8

With CAPZA3 (GeneID 93661) [SID160754542], how do the results read?
total luciferase, z-score: -0.653; total luciferase, % of control: 68.9

What did the screen give for CAPZA3 (GeneID 93661) [SID160754544]?
total luciferase, z-score: 1.58; total luciferase, % of control: 113

How did the screen score CAPZA3 (GeneID 93661) [SID160754545]?
total luciferase, z-score: -0.81; total luciferase, % of control: 65.8

5 entries from above, sorted by “total luciferase, % of control”, ascending.
EVA1A (GeneID 84141) [SID160751784] — total luciferase, z-score = -0.562; total luciferase, % of control = 70.7
PLEKHA8P1 (GeneID 51054) [SID160733481] — total luciferase, z-score = -0.308; total luciferase, % of control = 75.8
PLEKHA8P1 (GeneID 51054) [SID160739927] — total luciferase, z-score = -0.129; total luciferase, % of control = 79.3
ENY2 (GeneID 56943) [SID160733651] — total luciferase, z-score = 0.267; total luciferase, % of control = 87.2
PLEKHA8P1 (GeneID 51054) [SID160739928] — total luciferase, z-score = 1.05; total luciferase, % of control = 103
